Source: the supplement of paper PMC9938546
Structures can show the parent of a compound that is named as a salt. This is one part of the list. Baselines shift from plate to plate; read single values as rough.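 HCT116-GFP, a KRAS-mutant, microsatellite-unstable human colorectal cancer line, constantly expresses green fluorescent protein; immune cells were from healthy donors. Cancer cell survival was tracked by live-cell imaging of green fluorescence, and activated immune cells by themselves reduced survival to roughly half.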

Each compound was assayed on HCT116-GFP (assay: HCT116-GFP viability (GFP intensity) relative to untreated HCT116-GFP monoculture control, co-culture with activated PBMCs; higher = less cancer cell killing). Conditions: culture: co-culture with anti-CD3/IL2 activated PBMCs 1:1; 10 µM; 72 h.

SMILES	HCT116-GFP viability [%]
COC(=O)C1=C(C)NC(C)=C(C(=O)OCCN(C)Cc2ccccc2)C1c1cccc([N+](=O)[O-])c1 (configuration not stated) [Nicardipine hydrochloride]	27.3
CN1CCN(c2c(F)cc3c(=O)c(C(=O)O)cn4c3c2SCC4)CC1 [Rufloxacin]	27.7
COC(=O)C1=C(C)NC(C)=C(C(=O)OCC(C)C)C1c1ccccc1[N+](=O)[O-] (configuration not stated) [Nisoldipine]	15.8
NC(=O)NC1NC(=O)NC1=O (configuration not stated) [Allantoin]	36.8
CN(C)CCOC(c1ccc(Cl)cc1)c1ccccn1 (configuration not stated) [Carbinoxamine maleate salt]	58
O=C1CCc2ccc(OCCCCN3CCN(c4cccc(Cl)c4Cl)CC3)cc2N1 [Aripiprazole]	31.1
Cc1ccccc1C(OCCN(C)C)c1ccccc1 (configuration not stated) [Orphenadrine hydrochloride]	51.4
O=C1C(O)=C([C@H]2CC[C@H](c3ccc(Cl)cc3)CC2)C(=O)c2ccccc21 [Atovaquone]	36.9
CC(C)NCC(O)c1ccc(O)c(O)c1 (single isomer, unassigned; (-)) [(-)-Isoproterenol hydrochloride]	2.83
CN1CCOC(c2ccccc2)c2ccccc2C1 (configuration not stated) [Nefopam hydrochloride]	52.1
CN1CCC(=C2c3ccccc3CCc3sccc32)CC1 [Pizotifen malate]	59.8
CCN(CC)CCOc1ccc(C(=C(Cl)c2ccccc2)c2ccccc2)cc1 [Clomiphene citrate (Z,E)]	7.23
CN(C)[C@@H]1C(O)=C(C(=O)NCNCCCC[C@H](N)C(=O)O)C(=O)[C@@]2(O)C(O)=C3C(=O)c4c(O)cccc4[C@@](C)(O)[C@H]3C[C@@H]12 [Lymecycline]	42.6
CCCCNc1ccc(C(=O)OCCN(C)C)cc1 [Tetracaïne hydrochloride]	40.4
COc1ccccc1N1CCN(CCCCNC(=O)c2ccc3ccccc3c2)CC1	48.7
CCC1NC(=O)c2cc(S(N)(=O)=O)c(Cl)cc2N1 (configuration not stated) [Quinethazone]	38.7
Cc1cnc(C(=O)NCCc2ccc(S(=O)(=O)NC(=O)NC3CCCCC3)cc2)cn1 [Glipizide]	45.5
O=C1[C@H](CC[C@H](O)c2ccc(F)cc2)[C@@H](c2ccc(O)cc2)N1c1ccc(F)cc1 [Ezetimibe]	43.9
CC(C)(C)NC[C@H](O)COc1ccccc1C1CCCC1 [Penbutolol sulfate]	46.1

SMILES	HCT116-GFP viability [%]
COc1ccc(C(=O)c2ccccc2O)c(O)c1 [Dioxybenzone]	67
Nc1nc2[nH]cc(CCc3ccc(C(=O)N[C@@H](CCC(=O)O)C(=O)O)cc3)c2c(=O)[nH]1 [Pemetrexed disodium]	27.9
COc1ccc(CN2CCN(C(c3ccc(F)cc3)c3ccc(F)cc3)CC2)c(OC)c1OC [Lomerizine hydrochloride]	16.7
Cc1cnc(C(=O)O)c[n+]1[O-] [Acipimox]	51.3
O=C(OCCOCCO)c1ccccc1Nc1cccc(C(F)(F)F)c1 [Etofenamate]	48.5
O=C(O)[C@H]1/C(=C/CO)O[C@@H]2CC(=O)N21 [Clavulanate potassium salt]	46.8
C#C[C@]1(O)CC[C@H]2[C@@H]3CCC4=C(CCC(=O)C4)[C@H]3CC[C@@]21C [Norethynodrel]	31.3
CC[N+](CC)(CC)CCOc1cccc(OCC[N+](CC)(CC)CC)c1OCC[N+](CC)(CC)CC [Gallamine triethiodide]	38.4
CCOC(=O)[N-]c1c[n+](N2CCOCC2)no1 [Molsidomine]	44.9
NS(=O)(=O)c1cc2c(cc1Cl)NC(CC1CCCC1)NS2(=O)=O (configuration not stated) [Cyclopenthiazide]	45.1
CC(C)(C)NCC(O)c1cc(O)cc(O)c1 (configuration not stated) [Terbutaline hemisulfate]	49.3
CN[C@@H]1[C@H](O[C@H]2[C@H](O[C@H]3[C@H](O)[C@@H](O)[C@H](NC(=N)N)[C@@H](O)[C@@H]3NC(=N)N)O[C@@H](C)[C@]2(O)CO)O[C@@H](CO)[C@H](O)[C@H]1O [Dihydrostreptomycin sulfate]	54.5
NCc1ccc(S(N)(=O)=O)cc1 [Mafenide hydrochloride]	39.7
CCc1oc2ccccc2c1C(=O)c1cc(Br)c(O)c(Br)c1 [Benzbromarone]	34.4
CC/C(=C(\c1ccccc1)c1ccc(OCCN(C)C)cc1)c1ccccc1 [Tamoxifen citrate]	56.3
CCCCC[C@H](O)/C=C/[C@H]1[C@H](O)CC(=O)[C@@H]1CCCCCCC(=O)O [Alprostadil]	48.9
CCN1CCC[C@H]1CNC(=O)c1c(O)c(Cl)cc(Cl)c1OC [Raclopride]	46.7
CCOc1ccc(NC(C)=O)cc1 [Phenacetin]	32.8

Some of the entries above, reformatted:
SMILES,HCT116-GFP viability [%]
Nc1nc2[nH]cc(CCc3ccc(C(=O)N[C@@H](CCC(=O)O)C(=O)O)cc3)c2c(=O)[nH]1 [Pemetrexed disodium],27.9
Cc1cnc(C(=O)O)c[n+]1[O-] [Acipimox],51.3
CC[N+](CC)(CC)CCOc1cccc(OCC[N+](CC)(CC)CC)c1OCC[N+](CC)(CC)CC [Gallamine triethiodide],38.4
NS(=O)(=O)c1cc2c(cc1Cl)NC(CC1CCCC1)NS2(=O)=O (configuration not stated) [Cyclopenthiazide],45.1
CN[C@@H]1[C@H](O[C@H]2[C@H](O[C@H]3[C@H](O)[C@@H](O)[C@H](NC(=N)N)[C@@H](O)[C@@H]3NC(=N)N)O[C@@H](C)[C@]2(O)CO)O[C@@H](CO)[C@H](O)[C@H]1O [Dihydrostreptomycin sulfate],54.5
CC/C(=C(\c1ccccc1)c1ccc(OCCN(C)C)cc1)c1ccccc1 [Tamoxifen citrate],56.3
CCCCC[C@H](O)/C=C/[C@H]1[C@H](O)CC(=O)[C@@H]1CCCCCCC(=O)O [Alprostadil],48.9
CCN1CCC[C@H]1CNC(=O)c1c(O)c(Cl)cc(Cl)c1OC [Raclopride],46.7
CCOc1ccc(NC(C)=O)cc1 [Phenacetin],32.8
